PubChem BioAssay AID1159578, Peter MacCallum Cancer Centre – 2015
Screen: 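siRNA pools altering how lymphatic endothelial cells close a scratch wound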 (primary screen). Cells: human lymphatic endothelial cells. Knock-down reagent: siRNA pool against human genes, 40 nM. Time to read-out: 48 h after transfection. Measurement: 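High-content imaging of dye-stained cells in a scratch assay measures filled wound area and nuclei per well; duplicate means given as ratio to mock and robust z-score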. Scale: migration robust z-score: higher = faster migration into the scratch; migration relative to mock: higher = more scratch area covered than mock; nuclei per well: higher = more cells in the well. Call rule: 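Migration changed when robust z exceeds 2 or falls below -2 and mean nuclei number is at least 3300; otherwise not called changed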. Meaning of the calls: active = migration changed; inactive = no migration change, or too few cells.
Shown is a random part of about 18,000 reagents. Of all reagents, about 1,030 (5.7%) got an active call. 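Inactive calls also include pools with fewer than 3300 nuclei, whose migration was not assessed.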 The raw values are shown without normalisation.

| gene | migration robust z-score | migration class with cell-count check | migration relative to mock | nuclei per well, duplicate mean | Outcome |
| --- | --- | --- | --- | --- | --- |
| PTHLH | 2.09 | migration z above 2; enough cells | 1.43 | 5132 | active |
| SLC50A1 | -2.29 | migration z below -2; enough cells | 0.29 | 6393 | active |
| CHFR | -0.77 | migration z between -2 and 2; enough cells | 0.66 | 7369 | inactive |
| MEX3C | -1.53 | migration z between -2 and 2; enough cells | 0.51 | 3540 | inactive |
| GPHB5 | 2.62 | migration z above 2; enough cells | 1.56 | 6700 | active |
| ABAT | 0.42 | migration z between -2 and 2; enough cells | 0.88 | 5252 | inactive |
| PITPNA | -1.01 | migration z between -2 and 2; enough cells | 0.62 | 6216 | inactive |
| AEBP2 | 1.26 | migration z between -2 and 2; enough cells | 1.21 | 6436 | inactive |
| ADAMTS5 | 0.05 | migration z between -2 and 2; enough cells | 0.82 | 5348 | inactive |
| RHBDD2 | -0.56 | migration z between -2 and 2; enough cells | 0.74 | 5995 | inactive |
| OR10R2 | 0.83 | migration z between -2 and 2; enough cells | 1.1 | 5740 | inactive |
| GDPD5 | 2.34 | migration z above 2; enough cells | 1.49 | 7014 | active |
| CUEDC1 | -0.92 | migration z between -2 and 2; enough cells | 0.65 | 5858 | inactive |
| NINJ1 | -1.75 | migration z between -2 and 2; enough cells | 0.43 | 6228 | inactive |
| COTL1 | 0.6 | migration z between -2 and 2; enough cells | 1.04 | 5442 | inactive |
| CRNN | -3.68 | under 3300 nuclei; migration not judged | -0.06 | 2206 | inactive |
| ADAT2 | 2 | under 3300 nuclei; migration not judged | 1.19 | 942 | inactive |
| IGF2BP2-AS1 | -0.48 | migration z between -2 and 2; enough cells | 0.76 | 7121 | inactive |
| DIAPH1 | 0.7 | migration z between -2 and 2; enough cells | 1.06 | 5240 | inactive |
| UBA7 | 0.73 | migration z between -2 and 2; enough cells | 0.94 | 6426 | inactive |
| SERPINB4 | 0.82 | migration z between -2 and 2; enough cells | 1.1 | 6418 | inactive |
| TVP23C | 0.6 | migration z between -2 and 2; enough cells | 1.04 | 4542 | inactive |
| IL2RA | 0.2 | migration z between -2 and 2; enough cells | 0.84 | 4420 | inactive |
| SLC25A31 | 2.06 | migration z above 2; enough cells | 1.42 | 6398 | active |
| LIMA1 | 2.59 | migration z above 2; enough cells | 1.56 | 6289 | active |
| SMCO1 | 0.32 | migration z between -2 and 2; enough cells | 0.97 | 7228 | inactive |
| RILPL2 | 1.7 | migration z between -2 and 2; enough cells | 1.32 | 5438 | inactive |
| ALOX15B | 0.6 | migration z between -2 and 2; enough cells | 0.92 | 5200 | inactive |
| CCDC43 | -0.46 | migration z between -2 and 2; enough cells | 0.77 | 6352 | inactive |
| RFX7 | 0.26 | migration z between -2 and 2; enough cells | 0.96 | 5424 | inactive |
| SH3KBP1 | 1.21 | migration z between -2 and 2; enough cells | 1.2 | 5572 | inactive |
| SPPL2A | 0.36 | migration z between -2 and 2; enough cells | 0.87 | 5479 | inactive |
| DDT | -0.86 | migration z between -2 and 2; enough cells | 0.64 | 5326 | inactive |
| CABP1 | 1.42 | migration z between -2 and 2; enough cells | 1.25 | 6192 | inactive |
| PUM1 | 1.43 | migration z between -2 and 2; enough cells | 1.25 | 6011 | inactive |
| DAO | -0.08 | migration z between -2 and 2; enough cells | 0.79 | 5164 | inactive |
| PHGDH | -1.38 | migration z between -2 and 2; enough cells | 0.54 | 7610 | inactive |
| SSTR1 | -0.02 | migration z between -2 and 2; enough cells | 0.8 | 5332 | inactive |
| CEP170 | -1.37 | migration z between -2 and 2; enough cells | 0.53 | 4368 | inactive |

Entries above whose target name starts with S or s:
| gene | migration robust z-score | migration class with cell-count check | migration relative to mock | nuclei per well, duplicate mean | Outcome |
| --- | --- | --- | --- | --- | --- |
| SLC50A1 | -2.29 | migration z below -2; enough cells | 0.29 | 6393 | active |
| SERPINB4 | 0.82 | migration z between -2 and 2; enough cells | 1.1 | 6418 | inactive |
| SLC25A31 | 2.06 | migration z above 2; enough cells | 1.42 | 6398 | active |
| SMCO1 | 0.32 | migration z between -2 and 2; enough cells | 0.97 | 7228 | inactive |
| SH3KBP1 | 1.21 | migration z between -2 and 2; enough cells | 1.2 | 5572 | inactive |
| SPPL2A | 0.36 | migration z between -2 and 2; enough cells | 0.87 | 5479 | inactive |
| SSTR1 | -0.02 | migration z between -2 and 2; enough cells | 0.8 | 5332 | inactive |
